In this assay the test system is patient derived organoids. The experiment in a line: Calculated IC50 of various agents on organoids derived from the chemoresistant patient (PD3D cell culture). The conditions noted are these: organoids of the chemoresistant stage IV patient. Type of assay: cell-based, human. The protocol: The IC50 values were calculated from such tests. This value indicates the dosage at which 50% of the organoids were killed due to treatment.

This is an account of results in patent US12251411B2, “Methods of treating endometrial cancer using hemp extract” (Ecofibre USA Inc., priority 2021, dated 2025).

For the compound `COc1cc2c(c(OC)c1OC)-c1ccc(OC)c(=O)cc1[C@@H](NC(C)=O)CC2` [Colchicine], the “Calculated IC50 PD3D Cell Culture” value is listed as “Not Reached”.

Regarding `CC(C)NCC(O)COc1cccc2ccccc12` (centres unmarked) [Propranolol], the “Calculated IC50 PD3D Cell Culture” value is given as “Not Reached”.
